Reference: paper PMC4643883
Results are given in words; binding and its absence hold for the method and conditions named. Some binding calls cover weakened binding; strength is not graded here.

Chains of the proteins cited; added tags and fusions are not shown.
UniProt P05205: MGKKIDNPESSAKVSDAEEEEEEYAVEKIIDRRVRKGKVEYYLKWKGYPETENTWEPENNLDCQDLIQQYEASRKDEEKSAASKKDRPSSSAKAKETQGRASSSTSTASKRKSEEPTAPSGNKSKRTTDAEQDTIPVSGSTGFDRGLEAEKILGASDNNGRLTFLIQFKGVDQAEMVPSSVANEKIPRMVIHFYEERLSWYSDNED

Target: Heterochromatic Protein 1 (HP1), D. melanogaster (Drosophila melanogaster) (UniProt P05205)
Assay: co-elution from heparin-sepharose; the four co-expressed proteins supplemented with samples of HipHop obtained from a larger volume; heparin-sepharose

- binding: binds
B1: HP1-HOAP interacting protein (HipHop), D. melanogaster (protein, UniProt Q7JWP6 1-221)
chain: MASIDEGSRVERRFCAVGNHTLRKPYRQLNNKYLVRFACLLNSEIRAGNLICCKCYTDLVRLYRKKNDNAKRHKMARETAASITDVSGSQSSSHQSAPSLHVSGQSSEFGASYSEGGIVTPDEELCSHRSLSQDSDNVPTTSAAAIQKRQLARANLMVKPSQRLSLAQTTPDCDDYDPNSNLSLNAVNGTRLPHIQPIPKRRPTVLDKQSMDIYLMGTTGG
